From paper doi:10.1101/2024.08.08.607204, “Mechanism of ASF1 Inhibition by CDAN1” (bioRxiv, 2024)
Numbering of substitutions follows the chain as printed. No constants are given. Whether binding was seen depends on the method and setting. In cells and extracts the contact can be indirect. Some binding calls cover weakened binding; strength is not graded here. For some of these results: Tags and fused reporters may be left off the sequences shown. Blank lines part the entries; values can stand above or below the molecule they belong to.

Amino acid sequences for entries named in this document (tags omitted). A change or cut given only in a name is not applied to a line headed by its entry.
UniProt Q9NVP2: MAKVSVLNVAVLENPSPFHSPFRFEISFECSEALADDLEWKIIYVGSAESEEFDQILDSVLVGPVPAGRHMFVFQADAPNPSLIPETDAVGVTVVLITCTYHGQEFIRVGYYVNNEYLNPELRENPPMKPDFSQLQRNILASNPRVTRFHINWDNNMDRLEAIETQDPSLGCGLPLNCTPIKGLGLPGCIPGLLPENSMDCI
UniProt Q9Y294: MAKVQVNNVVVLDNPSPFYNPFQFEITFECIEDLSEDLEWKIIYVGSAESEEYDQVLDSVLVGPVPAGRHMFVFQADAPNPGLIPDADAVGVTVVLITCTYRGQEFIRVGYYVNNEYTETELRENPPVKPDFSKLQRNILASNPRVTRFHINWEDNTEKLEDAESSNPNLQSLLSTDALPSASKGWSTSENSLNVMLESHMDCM

Columns and labels:
[1] = molecular target: T1, Strep-tagged CDAN1 (ST-CDAN1), wildtype (human, UniProt Q8IWY9 1-1227); assay: pull-down; Strep-Tactin Sepharose pulldown of ST-CDAN1 variants from lysates of transfected Flp-In 293 T-REx cells (alone, or co-transfected with FLAG-tagged ASF1 variants), IP buffer with 1% Triton X-100, 1 hr at 4°C; immunoblotting
T1 construct: Codanin-1 (CDAN1) cDNA from Horizon Discovery/Dharmacon; a point mutation of the clone (S421F) was corrected; in pCDNA3.1; Dimer by SEC-MALS and cryo-EM; Same plasmid used in Expi293 (purifications) and in Flp-In 293 T-REx (pulldowns); kept as one molecule; also called WT CDAN1; Strep-CDAN1; source: Expi293, transiently transfected, in lysate and purified in complexes (anti-FLAG, Strep-Tactin); …
T1 sequence: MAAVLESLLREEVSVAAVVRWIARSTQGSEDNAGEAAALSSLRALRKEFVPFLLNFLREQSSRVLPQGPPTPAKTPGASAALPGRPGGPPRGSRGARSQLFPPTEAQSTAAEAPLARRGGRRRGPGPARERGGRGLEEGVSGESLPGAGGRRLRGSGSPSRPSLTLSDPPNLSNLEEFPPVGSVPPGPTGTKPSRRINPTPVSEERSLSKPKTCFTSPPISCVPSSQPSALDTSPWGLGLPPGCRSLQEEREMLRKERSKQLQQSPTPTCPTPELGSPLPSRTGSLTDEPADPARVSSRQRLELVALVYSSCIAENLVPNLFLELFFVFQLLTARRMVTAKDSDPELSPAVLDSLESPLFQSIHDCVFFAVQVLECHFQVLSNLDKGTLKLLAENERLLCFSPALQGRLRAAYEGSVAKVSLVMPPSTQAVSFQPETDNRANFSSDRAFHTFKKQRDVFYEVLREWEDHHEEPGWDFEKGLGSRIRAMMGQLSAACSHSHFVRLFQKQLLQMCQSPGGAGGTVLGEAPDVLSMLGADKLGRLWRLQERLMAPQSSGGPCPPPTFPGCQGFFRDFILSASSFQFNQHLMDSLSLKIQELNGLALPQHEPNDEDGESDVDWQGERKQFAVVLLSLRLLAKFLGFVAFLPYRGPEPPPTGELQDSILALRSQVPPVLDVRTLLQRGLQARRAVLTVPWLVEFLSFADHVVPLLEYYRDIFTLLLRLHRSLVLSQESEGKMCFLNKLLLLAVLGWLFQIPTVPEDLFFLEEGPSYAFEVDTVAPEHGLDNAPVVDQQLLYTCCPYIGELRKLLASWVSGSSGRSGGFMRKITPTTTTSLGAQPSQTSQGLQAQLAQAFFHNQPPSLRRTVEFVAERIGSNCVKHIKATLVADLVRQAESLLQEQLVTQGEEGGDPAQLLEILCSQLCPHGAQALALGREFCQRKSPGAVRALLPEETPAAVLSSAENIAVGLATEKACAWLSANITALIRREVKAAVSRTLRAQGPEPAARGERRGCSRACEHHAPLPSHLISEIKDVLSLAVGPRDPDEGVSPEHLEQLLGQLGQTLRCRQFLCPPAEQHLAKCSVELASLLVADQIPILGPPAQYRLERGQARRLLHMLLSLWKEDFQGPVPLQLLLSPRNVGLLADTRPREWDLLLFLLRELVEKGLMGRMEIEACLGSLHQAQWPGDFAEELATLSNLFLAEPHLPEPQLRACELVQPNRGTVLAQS

[2] = molecular target: T2, Strep-CDAN1 B* (S194A/R195A/R196A) (human) (UniProt Q8IWY9); assay: as above
T2 sequence: T1 sequence with S194A, R195A, R196A

[3] = molecular target: T3, endogenous CDAN1 with a C-terminal HaloTag-FLAG (HF) epitope (human (endogenous in Flp-In 293 T-REx)) (UniProt Q8IWY9); assay: co-IP; anti-FLAG M2 agarose immunoprecipitation of endogenously HaloTag-FLAG-tagged CDAN1 or CDIN1 from Flp-In 293 T-REx lysates in IP buffer (50 mM HEPES pH 7.5, 100 mM KOAc, 2.5 Mg(OAc)2, 1% Triton X-100); immunoblotting
T3 sequence: T1 sequence

Molecule: FLAG-ASF1A>N (ASF1A with the N-terminal domain, residues 1-27, of ASF1B) (from UniProt Q9NVP2 1-27; Q9Y294 28-204)
binding [1]: binds | binding [2]: binds

Molecule: FLAG-ASF1B>N (ASF1B with the N-terminal domain, residues 1-27, of ASF1A) (from UniProt Q9Y294 1-27; Q9NVP2 28-202)
binding [1]: binds

Molecule: endogenous ASF1B (from UniProt Q9NVP2 1-202)
binding [3]: binds | binding [1]: binds | binding [2]: binds

Second part, the molecule after the results:

binding [2]: binds
Molecule: FLAG-tagged ASF1A (F-ASF1A) (from UniProt Q9Y294 1-204)

binding [3]: binds | binding [1]: binds | binding [2]: binds
Molecule: endogenous ASF1A (from UniProt Q9Y294 1-204)

binding [3]: binds | binding [1]: binds | binding [2]: binds
B1: FLAG-tagged CDIN1 (F-CDIN1) (natural protein, UniProt Q9Y2V0 1-281, looked up)
chain: MILTKAQYDEIAQCLVSVPPTRQSLRKLKQRFPSQSQATLLSIFSQEYQKHIKRTHAKHHTSEAIESYYQRYLNGVVKNGAAPVLLDLANEVDYAPSLMARLILERFLQEHEETPPSKSIINSMLRDPSQIPDGVLANQVYQCIVNDCCYGPLVDCIKHAIGHEHEVLLRDLLLEKNLSFLDEDQLRAKGYDKTPDFILQVPVAVEGHIIHWIESKASFGDECSHHAYLHDQFWSYWNRFGPGLVIYWYGFIQELDCNRERGILLKACFPTNIVTLCHSIA
notes: CDIN1 (C15orf41) cDNA synthesized by IDT, in pCDNA3.1; source: Expi293, transiently transfected, in lysate and purified in complexes (anti-FLAG, Strep-Tactin); not shown: 3xFLAG, N-terminal, kept
